Experimental data from article PMC5461490.
These are yes or no findings as the source states them, for the method shown. In cells and extracts the contact can be indirect. Some results given as binding are weak or reduced against the parent protein; the word gives no strength.

By UniProt entry, the sequences of proteins in these tests, tags left out. Residues count along the entry.
UniProt P06241: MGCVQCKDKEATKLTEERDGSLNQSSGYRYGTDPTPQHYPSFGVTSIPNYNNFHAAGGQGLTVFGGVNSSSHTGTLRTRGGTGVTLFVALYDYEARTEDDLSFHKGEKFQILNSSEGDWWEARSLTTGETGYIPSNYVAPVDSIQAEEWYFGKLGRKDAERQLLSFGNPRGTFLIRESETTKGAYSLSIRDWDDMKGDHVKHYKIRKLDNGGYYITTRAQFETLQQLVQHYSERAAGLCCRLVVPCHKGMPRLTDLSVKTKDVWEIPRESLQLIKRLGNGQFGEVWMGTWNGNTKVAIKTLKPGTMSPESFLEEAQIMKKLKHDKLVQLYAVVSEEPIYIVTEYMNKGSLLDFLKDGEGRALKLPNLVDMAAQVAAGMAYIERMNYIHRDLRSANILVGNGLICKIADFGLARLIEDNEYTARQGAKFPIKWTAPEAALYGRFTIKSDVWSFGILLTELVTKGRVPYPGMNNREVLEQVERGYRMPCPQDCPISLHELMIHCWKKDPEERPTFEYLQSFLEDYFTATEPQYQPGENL
UniProt P23471, residues 25-2315: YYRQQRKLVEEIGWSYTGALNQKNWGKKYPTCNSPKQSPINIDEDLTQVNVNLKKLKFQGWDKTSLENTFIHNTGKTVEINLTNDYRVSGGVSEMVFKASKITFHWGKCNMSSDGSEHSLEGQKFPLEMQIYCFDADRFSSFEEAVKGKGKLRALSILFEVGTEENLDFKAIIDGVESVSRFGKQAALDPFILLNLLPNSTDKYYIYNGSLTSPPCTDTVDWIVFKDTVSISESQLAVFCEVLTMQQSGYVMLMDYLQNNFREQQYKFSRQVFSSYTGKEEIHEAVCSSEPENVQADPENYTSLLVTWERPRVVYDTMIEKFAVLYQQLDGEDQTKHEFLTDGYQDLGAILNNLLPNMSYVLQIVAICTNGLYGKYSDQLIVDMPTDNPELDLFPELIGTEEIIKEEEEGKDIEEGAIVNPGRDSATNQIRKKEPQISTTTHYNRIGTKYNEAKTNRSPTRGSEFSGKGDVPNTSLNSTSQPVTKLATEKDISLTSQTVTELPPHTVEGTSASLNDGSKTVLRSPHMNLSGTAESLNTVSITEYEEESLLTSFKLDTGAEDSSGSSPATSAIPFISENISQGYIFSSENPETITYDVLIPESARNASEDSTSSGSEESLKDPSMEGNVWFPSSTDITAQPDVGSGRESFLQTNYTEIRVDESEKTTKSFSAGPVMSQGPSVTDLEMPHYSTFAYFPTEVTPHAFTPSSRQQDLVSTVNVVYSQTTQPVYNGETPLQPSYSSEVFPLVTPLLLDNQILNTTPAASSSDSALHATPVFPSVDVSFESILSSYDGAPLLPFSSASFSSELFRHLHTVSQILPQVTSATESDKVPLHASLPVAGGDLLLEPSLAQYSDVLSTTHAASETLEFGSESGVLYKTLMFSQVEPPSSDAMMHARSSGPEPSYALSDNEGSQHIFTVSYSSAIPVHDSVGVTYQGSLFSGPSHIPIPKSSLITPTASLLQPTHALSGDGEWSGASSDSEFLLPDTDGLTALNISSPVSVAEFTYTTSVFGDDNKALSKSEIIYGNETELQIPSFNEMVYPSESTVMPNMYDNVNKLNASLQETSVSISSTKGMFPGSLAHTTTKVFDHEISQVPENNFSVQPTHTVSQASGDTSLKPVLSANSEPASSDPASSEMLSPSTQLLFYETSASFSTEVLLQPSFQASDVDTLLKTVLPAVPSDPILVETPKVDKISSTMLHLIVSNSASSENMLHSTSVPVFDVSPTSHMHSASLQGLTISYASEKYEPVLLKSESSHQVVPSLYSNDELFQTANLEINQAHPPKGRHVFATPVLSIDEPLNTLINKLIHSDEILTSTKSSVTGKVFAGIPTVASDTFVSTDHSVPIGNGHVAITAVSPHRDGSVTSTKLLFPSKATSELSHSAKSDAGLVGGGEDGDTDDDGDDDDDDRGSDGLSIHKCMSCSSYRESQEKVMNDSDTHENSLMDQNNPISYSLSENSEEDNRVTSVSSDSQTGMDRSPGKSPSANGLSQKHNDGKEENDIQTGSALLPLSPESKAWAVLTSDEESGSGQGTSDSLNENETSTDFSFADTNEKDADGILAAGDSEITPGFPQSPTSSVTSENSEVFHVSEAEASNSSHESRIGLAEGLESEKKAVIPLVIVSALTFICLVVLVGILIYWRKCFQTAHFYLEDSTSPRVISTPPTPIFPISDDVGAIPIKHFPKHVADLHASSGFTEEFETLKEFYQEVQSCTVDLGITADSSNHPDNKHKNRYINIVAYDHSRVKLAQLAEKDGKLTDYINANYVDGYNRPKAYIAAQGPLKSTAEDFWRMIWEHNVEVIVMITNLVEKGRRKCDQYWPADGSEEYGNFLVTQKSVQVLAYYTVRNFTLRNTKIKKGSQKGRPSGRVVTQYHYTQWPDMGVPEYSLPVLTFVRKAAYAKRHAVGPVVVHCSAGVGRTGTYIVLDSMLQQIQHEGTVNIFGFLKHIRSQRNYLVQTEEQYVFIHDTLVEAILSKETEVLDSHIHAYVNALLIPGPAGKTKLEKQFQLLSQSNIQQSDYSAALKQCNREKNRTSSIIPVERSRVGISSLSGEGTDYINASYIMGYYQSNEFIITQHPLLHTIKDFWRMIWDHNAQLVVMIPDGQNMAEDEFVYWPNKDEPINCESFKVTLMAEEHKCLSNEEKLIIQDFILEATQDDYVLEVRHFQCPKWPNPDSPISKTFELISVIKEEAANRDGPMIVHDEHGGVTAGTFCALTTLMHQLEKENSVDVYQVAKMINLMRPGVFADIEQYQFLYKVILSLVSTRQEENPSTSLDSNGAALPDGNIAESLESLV

Target: Fyn (human (endogenous in GSCs isolated from human GBM)) (UniProt P06241)
Assay: co-IP; lysates of T387 and T0912 GSCs (50 mM Tris-HCl pH 7.4, 150 mM NaCl, 5 mM EDTA, 10% glycerol, 1% NP-40); 500 ug protein with anti-Fyn antibody (Santa Cruz, sc-16) and Protein A/G Plus Agarose, 14 h at 4 C; washed four times with 0.1% Triton-100 in PBS; blot for PTPRZ1; normal rabbit IgG as negative control

binding: binds
Substance: protein tyrosine phosphatase, receptor-type, Z polypeptide 1 (PTPRZ1) (from UniProt P23471 25-2315)
